For 21 sequences, binding signal results are on record in PMC7862700.

Sequences of proteins named here, by UniProt entry; tags and fusion partners are left off. A change or cut given only in a name is not applied to a line headed by its entry.
UniProt Q01892: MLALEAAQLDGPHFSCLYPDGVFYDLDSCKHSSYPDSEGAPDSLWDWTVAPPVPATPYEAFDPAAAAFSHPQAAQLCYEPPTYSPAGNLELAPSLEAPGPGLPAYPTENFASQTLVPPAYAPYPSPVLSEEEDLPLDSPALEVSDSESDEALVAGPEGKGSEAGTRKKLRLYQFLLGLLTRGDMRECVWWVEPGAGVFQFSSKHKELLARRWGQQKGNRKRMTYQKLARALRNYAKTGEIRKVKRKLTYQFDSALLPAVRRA
UniProt P41161: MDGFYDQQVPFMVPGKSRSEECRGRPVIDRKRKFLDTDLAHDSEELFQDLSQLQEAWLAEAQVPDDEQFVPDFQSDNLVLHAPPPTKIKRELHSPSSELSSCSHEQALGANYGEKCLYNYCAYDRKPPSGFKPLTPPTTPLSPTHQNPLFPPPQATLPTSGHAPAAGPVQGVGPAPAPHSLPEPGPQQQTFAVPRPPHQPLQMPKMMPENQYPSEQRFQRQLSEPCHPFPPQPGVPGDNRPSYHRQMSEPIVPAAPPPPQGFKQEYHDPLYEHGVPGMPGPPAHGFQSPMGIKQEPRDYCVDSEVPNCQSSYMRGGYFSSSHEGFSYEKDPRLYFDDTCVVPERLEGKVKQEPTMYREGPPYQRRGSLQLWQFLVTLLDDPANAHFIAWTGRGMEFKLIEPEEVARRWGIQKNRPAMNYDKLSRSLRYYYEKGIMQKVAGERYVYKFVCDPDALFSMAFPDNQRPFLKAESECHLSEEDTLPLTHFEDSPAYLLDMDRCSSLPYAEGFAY
UniProt Q99607: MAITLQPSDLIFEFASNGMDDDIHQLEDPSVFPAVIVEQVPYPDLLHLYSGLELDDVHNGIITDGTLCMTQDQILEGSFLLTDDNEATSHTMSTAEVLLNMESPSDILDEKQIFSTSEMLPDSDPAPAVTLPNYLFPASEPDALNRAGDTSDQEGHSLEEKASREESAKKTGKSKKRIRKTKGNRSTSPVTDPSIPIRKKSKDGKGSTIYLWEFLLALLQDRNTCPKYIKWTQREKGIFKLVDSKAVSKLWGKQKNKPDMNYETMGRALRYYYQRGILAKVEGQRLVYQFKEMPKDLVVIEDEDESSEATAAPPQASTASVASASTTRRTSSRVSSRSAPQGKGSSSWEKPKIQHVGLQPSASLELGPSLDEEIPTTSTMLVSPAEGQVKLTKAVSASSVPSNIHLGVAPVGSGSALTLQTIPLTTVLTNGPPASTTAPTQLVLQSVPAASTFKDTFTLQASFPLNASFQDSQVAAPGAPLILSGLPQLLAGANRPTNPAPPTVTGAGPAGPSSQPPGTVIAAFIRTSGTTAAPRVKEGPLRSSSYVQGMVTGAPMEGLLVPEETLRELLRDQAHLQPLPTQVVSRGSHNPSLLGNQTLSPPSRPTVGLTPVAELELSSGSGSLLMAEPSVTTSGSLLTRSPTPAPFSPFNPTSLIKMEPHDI

Only a part is listed here, and it is no random draw. At the low end of the ranking the order means little.

Targets include SPIB (UniProt Q01892); ETV5 (UniProt P41161); ELF4 (UniProt Q99607).
Common to all, as to test: DAPPL (digital affinity profiling via proximity ligation, sequencing)
Holding throughout (conditions): 10 mM Tris-HCl pH 7.5, 50 mM NaCl, 1 mM DTT, 4% glycerol, room temperature, 30 min; GST-TFs on glutathione beads, 16-mer random dsDNA library, 0.1% …; high values mean tight binding; double strand, one strand shown; scale: fold enrichment (6-mer frequency, TF over GST control)

A further assay addresses T1, FLI1 (UniProt Q01543).
T1 sequence: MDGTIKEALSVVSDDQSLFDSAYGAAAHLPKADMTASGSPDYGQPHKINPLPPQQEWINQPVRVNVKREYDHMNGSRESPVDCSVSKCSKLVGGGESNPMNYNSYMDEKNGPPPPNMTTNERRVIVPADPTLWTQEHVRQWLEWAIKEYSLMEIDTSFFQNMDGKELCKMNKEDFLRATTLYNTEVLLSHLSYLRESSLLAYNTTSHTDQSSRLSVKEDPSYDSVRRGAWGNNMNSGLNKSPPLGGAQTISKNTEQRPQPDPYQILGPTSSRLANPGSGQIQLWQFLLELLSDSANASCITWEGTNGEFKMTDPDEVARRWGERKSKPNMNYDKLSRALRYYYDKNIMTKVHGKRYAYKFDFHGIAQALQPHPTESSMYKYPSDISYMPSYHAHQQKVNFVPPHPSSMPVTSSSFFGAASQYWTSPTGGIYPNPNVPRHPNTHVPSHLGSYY

The next assay addresses T2, EHF (UniProt Q9NZC4).
T2 sequence: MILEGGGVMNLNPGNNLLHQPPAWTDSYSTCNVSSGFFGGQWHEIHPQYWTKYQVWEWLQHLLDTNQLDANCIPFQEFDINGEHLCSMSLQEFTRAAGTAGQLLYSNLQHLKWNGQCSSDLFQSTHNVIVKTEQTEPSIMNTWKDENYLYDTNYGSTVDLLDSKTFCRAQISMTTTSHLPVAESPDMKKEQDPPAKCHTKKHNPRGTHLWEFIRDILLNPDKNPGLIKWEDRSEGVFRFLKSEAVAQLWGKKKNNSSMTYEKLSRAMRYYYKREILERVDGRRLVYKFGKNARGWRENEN

The next assay has as its target T3, ETV2 (UniProt O00321).
T3 sequence: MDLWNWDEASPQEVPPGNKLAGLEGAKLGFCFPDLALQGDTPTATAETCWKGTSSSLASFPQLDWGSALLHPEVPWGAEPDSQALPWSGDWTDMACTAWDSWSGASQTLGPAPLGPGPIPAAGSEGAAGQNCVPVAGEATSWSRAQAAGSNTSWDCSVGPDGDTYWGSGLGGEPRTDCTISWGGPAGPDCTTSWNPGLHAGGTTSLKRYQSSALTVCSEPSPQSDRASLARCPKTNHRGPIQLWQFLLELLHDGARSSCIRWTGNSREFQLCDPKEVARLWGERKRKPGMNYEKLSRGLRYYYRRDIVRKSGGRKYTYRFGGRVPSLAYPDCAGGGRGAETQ

The next assay has as its target T4, ETV3L (UniProt Q6ZN32).
T4 sequence: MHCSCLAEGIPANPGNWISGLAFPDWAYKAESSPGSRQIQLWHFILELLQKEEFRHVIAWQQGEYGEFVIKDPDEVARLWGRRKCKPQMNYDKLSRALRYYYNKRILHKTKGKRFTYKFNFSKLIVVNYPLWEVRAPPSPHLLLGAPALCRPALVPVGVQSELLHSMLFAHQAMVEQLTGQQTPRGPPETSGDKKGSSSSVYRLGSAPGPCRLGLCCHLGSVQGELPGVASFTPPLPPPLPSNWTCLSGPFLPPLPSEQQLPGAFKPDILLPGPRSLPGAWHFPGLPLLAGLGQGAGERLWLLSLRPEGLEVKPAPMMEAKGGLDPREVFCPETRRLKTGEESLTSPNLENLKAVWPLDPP

With GAGTCC, the binding signal with FLI1 was 0.411; in the assay with EHF, 0.397; in the assay with SPIB, 0.369; with ETV5, 0.393; with ELF4, 0.398; in the assay with ETV2, 0.406. For the same sequence, the binding signal in the assay with ETV3L was 0.425.
In the case of GCACGT, the binding signal in the assay with FLI1 was found to be 0.852; in the assay with EHF it was 0.781; with SPIB, 0.894; with ETV5, 0.772; with ELF4, 0.845; in the assay with ETV2 it was 0.736. This sequence had a binding signal with ETV3L of 0.826.
GCAGGC: the binding signal in the assay with FLI1 stood at 0.656; with EHF, 0.676; with SPIB, 0.727; with ETV5, 0.745; in the assay with ELF4, 0.7; with ETV2, 0.786. Moreover, in the assay with ETV3L, the binding signal amounted to 0.652.
Turning to GTAGAG, the binding signal stood at 0.558 with FLI1; 0.591 with EHF; 0.579 with SPIB; 0.582 with ETV5; 0.616 with ELF4; 0.6 in the assay with ETV2. In the assay with ETV3L, the binding signal amounted to 0.573.
As for AGGGGG, the binding signal is 0.591 in the assay with FLI1; 0.563 with EHF; 0.61 with SPIB; 0.58 in the assay with ETV5; 0.608 with ELF4; 0.616 with ETV2. The same sequence showed a binding signal with ETV3L of 0.661.
Consider GGCTGT, for which the binding signal in the assay with FLI1 came to 0.713; with EHF, 0.845; with SPIB, 0.748; with ETV5, 0.811; in the assay with ELF4 it was 0.885; with ETV2, 0.655. Also, the binding signal in the assay with ETV3L turned out to be 0.732.
Take AGAGTG: the binding signal with FLI1 was found to be 0.642; with EHF, 0.657; with SPIB, 0.571; with ETV5, 0.668; with ELF4 it was 0.624; in the assay with ETV2 it was 0.636. This sequence displayed a binding signal with ETV3L of 0.61.
Regarding ACGCAG, the binding signal amounted to 0.833 with FLI1; 0.751 with EHF; 0.765 in the assay with SPIB; 0.818 with ETV5; 0.784 in the assay with ELF4; 0.887 in the assay with ETV2. Further, the binding signal with ETV3L amounted to 0.733.
CGTGCA: the binding signal worked out at 0.66 in the assay with FLI1; 0.736 with EHF; 0.604 with SPIB; 0.708 in the assay with ETV5; 0.712 with ELF4; 0.785 with ETV2. The binding signal in the assay with ETV3L was found to be 0.663.
Consider GACCAG, for which the binding signal in the assay with FLI1 was found to be 0.614; with EHF, 0.683; with SPIB, 0.701; in the assay with ETV5, 0.617; in the assay with ELF4 it was 0.663; with ETV2, 0.597. The sequence further displayed a binding signal in the assay with ETV3L of 0.705.
Consider TAGGCG, for which the binding signal amounted to 0.619 with FLI1; 0.659 with EHF; 0.665 with SPIB; 0.641 with ETV5; 0.635 with ELF4; 0.64 with ETV2. This sequence also registered a binding signal in the assay with ETV3L of 0.664.
In the case of CGAGAC, the binding signal was determined as 0.542 with FLI1; 0.584 with EHF; 0.553 with SPIB; 0.542 with ETV5; 0.561 in the assay with ELF4; 0.567 in the assay with ETV2. For the same sequence, the binding signal with ETV3L is 0.528.
Regarding GTGCGA, the binding signal with FLI1 stood at 0.89; with EHF it was 0.895; with SPIB it was 0.848; with ETV5, 0.917; in the assay with ELF4, 0.913; with ETV2 it was 0.873. The binding signal in the assay with ETV3L amounted to 0.829.
On to TATCGG, for which the binding signal was 0.804 in the assay with FLI1; 0.756 in the assay with EHF; 0.775 in the assay with SPIB; 0.819 in the assay with ETV5; 0.848 in the assay with ELF4; 0.815 in the assay with ETV2. This sequence displayed a binding signal in the assay with ETV3L of 0.824.
Turning to GGGACA, the binding signal in the assay with FLI1 was found to be 0.732; in the assay with EHF, 0.63; with SPIB it was 0.601; with ETV5, 0.636; with ELF4 it was 0.63; with ETV2, 0.621. This sequence also gave a binding signal with ETV3L of 0.639.
Turning to GAGCCC, the binding signal with FLI1 was 0.781; with EHF, 0.704; with SPIB it was 0.72; with ETV5, 0.794; with ELF4 it was 0.722; with ETV2 it was 0.7. In addition, the binding signal in the assay with ETV3L came out at 0.662.
With CCGCGA, the binding signal with FLI1 turned out to be 0.736; with EHF it was 0.657; with SPIB, 0.734; with ETV5, 0.718; with ELF4, 0.794; with ETV2, 0.788. The sequence further displayed a binding signal with ETV3L of 0.734.
For AGTCAT, the binding signal worked out at 0.558 in the assay with FLI1; 0.597 in the assay with EHF; 0.543 with SPIB; 0.581 with ETV5; 0.575 in the assay with ELF4; 0.609 with ETV2. Also, in the assay with ETV3L, the binding signal was 0.601.
Take CCGTCG: the binding signal worked out at 0.847 in the assay with FLI1; 0.929 with EHF; 0.835 with SPIB; 0.758 with ETV5; 0.783 with ELF4; 0.843 with ETV2. In addition, the binding signal in the assay with ETV3L was 0.802.
In the case of GAGACC, the binding signal in the assay with FLI1 was found to be 0.223; in the assay with EHF, 0.222; with SPIB, 0.22; with ETV5 it was 0.2; with ELF4, 0.22; in the assay with ETV2, 0.174. Moreover, the binding signal with ETV3L amounted to 0.202.
TTGTGA: the binding signal with FLI1 turned out to be 0.822; with EHF, 0.762; in the assay with SPIB, 0.829; with ETV5 it was 0.74; in the assay with ELF4, 0.85; in the assay with ETV2, 0.78. For the same sequence, the binding signal in the assay with ETV3L was determined as 0.777.
